Source: PMC7108717, “Dynamics in the murine norovirus capsid revealed by high-resolution cryo-EM” (PLoS Biology, 2020)
No constants are given. Whether binding was seen depends on the method and setting. Some binding calls cover weakened binding; strength is not graded here.

Protein sequences, listed by entry. Tags and fused reporters are not part of them.
UniProt Q80J94: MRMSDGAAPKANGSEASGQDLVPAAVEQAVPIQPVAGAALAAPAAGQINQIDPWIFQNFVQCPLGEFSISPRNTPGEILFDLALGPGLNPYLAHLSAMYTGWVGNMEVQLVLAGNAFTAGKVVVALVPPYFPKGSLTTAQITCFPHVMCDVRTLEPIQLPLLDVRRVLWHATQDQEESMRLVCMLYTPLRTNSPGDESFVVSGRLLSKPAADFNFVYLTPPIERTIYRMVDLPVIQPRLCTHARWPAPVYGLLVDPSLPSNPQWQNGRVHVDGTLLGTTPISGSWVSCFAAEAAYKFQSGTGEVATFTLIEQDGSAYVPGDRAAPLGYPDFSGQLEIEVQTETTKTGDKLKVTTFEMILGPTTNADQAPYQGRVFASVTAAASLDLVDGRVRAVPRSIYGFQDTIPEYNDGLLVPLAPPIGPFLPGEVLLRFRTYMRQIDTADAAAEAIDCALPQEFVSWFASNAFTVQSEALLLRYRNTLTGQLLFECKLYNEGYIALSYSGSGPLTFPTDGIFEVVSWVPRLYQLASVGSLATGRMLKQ

Legend:
[1] = target: murine norovirus (MNV-1 strain CW1P3) major structural protein VP1, wild type (murine norovirus (MNV-1 strain CW1P3)) (UniProt Q80J94); experiment: cryo-EM structure; purified virions in EM buffer (10 mM HEPES pH 7.6, 200 mM NaCl, 5 mM MgCl2, 1 mM KCl, 1 mM CaCl2), icosahedral reconstruction and focussed classification of P domain dimers; both purified
[2] = target: murine norovirus (MNV-1 strain CW1P3) major structural protein VP1, wild type (murine norovirus (MNV-1 strain CW1P3)) (UniProt Q80J94); experiment: cryo-EM structure; purified wtMNV virions heated to 61°C (heat-inactivated, hiMNV), icosahedral reconstruction and focussed classification of CC-type P domain dimers; both purified

Substance: murine norovirus (MNV-1 strain CW1P3) major structural protein VP1, wild type (from UniProt Q80J94 1-541)
- binding [1]: binds
- binding [2]: binds
